Laboratory results published in PMC6995549.
No constants are given. Whether binding was seen depends on the method and setting. In cells and extracts the contact can be indirect. Some binding calls cover weakened binding; strength is not graded here.

Chains of the proteins cited; added tags and fusions are not shown.
UniProt O15392: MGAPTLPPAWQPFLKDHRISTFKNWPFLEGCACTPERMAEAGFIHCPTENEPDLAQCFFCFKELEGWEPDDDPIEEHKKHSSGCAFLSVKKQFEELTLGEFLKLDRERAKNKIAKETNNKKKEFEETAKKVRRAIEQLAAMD

Molecular target: survivin (human (endogenous in Caki)) (UniProt O15392)
Assay: co-IP; endogenous proteins from Caki cells; CHAPS lysis buffer, primary antibody (anti-survivin or anti-c-FLIP) overnight, protein G agarose beads 2 h; detected by Western blotting

B1: STAM-binding protein-like 1 (enzyme, UniProt Q96FJ0 1-436)
chain: MDQPFTVNSLKKLAAMPDHTDVSLSPEERVRALSKLGCNITISEDITPRRYFRSGVEMERMASVYLEEGNLENAFVLYNKFITLFVEKLPNHRDYQQCAVPEKQDIMKKLKEIAFPRTDELKNDLLKKYNVEYQEYLQSKNKYKAEILKKLEHQRLIEAERKRIAQMRQQQLESEQFLFFEDQLKKQELARGQMRSQQTSGLSEQIDGSALSCFSTHQNNSLLNVFADQPNKSDATNYASHSPPVNRALTPAATLSAVQNLVVEGLRCVVLPEDLCHKFLQLAESNTVRGIETCGILCGKLTHNEFTITHVIVPKQSAGPDYCDMENVEELFNVQDQHDLLTLGWIHTHPTQTAFLSSVDLHTHCSYQLMLPEAIAIVCSPKHKDTGIFRLTNAGMLEVSACKKKGFHPHTKEPRLFSICKHVLVKDIKIIVLDLR
With B1 the binding was “binds”.
